Reference: PubChem BioAssay AID1671190 (National Center for Advancing Translational Sciences (NCATS), 2021)
The whole screen tested about 580,000 compounds, of which about 6,100 (1.1%) were called active. The inconclusive results got no clear call from the source; some entries with a clear call stand among them for comparison. The call rests on the fitted dose curve; in most records, active means well fitted inhibition curve with a large enough effect; inconclusive means small, poorly fitted or top-dose-only effect, or another doubt; inactive means no such curve, though single readings can be large or run the other way. Potencies of inconclusive entries are doubtful fits and often do not repeat.

Chains of the proteins cited; added tags and fusions are not shown. Lines headed by an entry give the natural chain unless they say otherwise; changes in a name come on top.
UniProt P18054: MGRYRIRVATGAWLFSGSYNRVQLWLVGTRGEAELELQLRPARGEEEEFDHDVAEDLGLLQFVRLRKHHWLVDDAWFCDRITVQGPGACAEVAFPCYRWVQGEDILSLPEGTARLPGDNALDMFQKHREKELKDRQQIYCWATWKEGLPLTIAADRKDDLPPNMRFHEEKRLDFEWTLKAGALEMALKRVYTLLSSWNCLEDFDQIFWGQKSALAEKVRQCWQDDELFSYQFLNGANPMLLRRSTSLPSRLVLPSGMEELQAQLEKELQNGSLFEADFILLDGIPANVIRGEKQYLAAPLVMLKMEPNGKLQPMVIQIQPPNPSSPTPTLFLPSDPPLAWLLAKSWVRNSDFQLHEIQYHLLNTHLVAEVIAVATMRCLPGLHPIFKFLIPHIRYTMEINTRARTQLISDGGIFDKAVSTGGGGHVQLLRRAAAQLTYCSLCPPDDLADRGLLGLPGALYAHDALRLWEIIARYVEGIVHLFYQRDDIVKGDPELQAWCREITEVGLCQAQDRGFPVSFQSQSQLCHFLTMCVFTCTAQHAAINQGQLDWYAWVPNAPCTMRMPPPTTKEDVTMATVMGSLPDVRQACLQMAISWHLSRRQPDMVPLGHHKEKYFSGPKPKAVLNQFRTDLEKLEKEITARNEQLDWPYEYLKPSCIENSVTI

target: Polyunsaturated fatty acid lipoxygenase ALOX12 (Homo sapiens) (UniProt P18054); experiment: Primary qHTS assay for inhibitors of human arachidonate 12S-lipoxygenase (ALOX12): Round 2; settings: purified 12hLO, xylenol orange hydroperoxide absorbance; series mostly up to 108 µM
Summary of the method: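 Purified human 12hLO at 150 nM in 25 mM Hepes, 0.01% Triton X-100, pH 7.0, preincubated 15 min at room temperature with compound. Reaction started with 40 uM arachidonic acid, 30 min at room temperature. Hydroperoxide measured by Fe-xylenol orange, 573/405 nm absorbance ratio.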
Potency means the concentration at half of the fitted maximal effect.

Compound	Potency
COc1ccc(C(=O)NCC(=O)N/N=C/c2cccc(OC(=O)c3ccco3)c2)cc1OC	inactive
O=C1C(=O)N(CCN2CCOCC2)C(c2ccc(Cl)c(Cl)c2)/C1=C(/O)c1ccc2c(c1)OCO2 (stereo not drawn)	inconclusive: 44.7 µM [inhibitor, partial curve]
Cc1cc(C)c2c(C)nn(-c3ccccc3)c2n1	inactive
COc1ccc(-c2nccc3c(=O)cc(N(C)c4ccccc4)oc23)cn1	inconclusive: 50.1 µM [inhibitor, partial curve]
c1ccc(Cn2nnnc2C(c2cccs2)N2CCOCC2)cc1 (stereo not drawn)	inconclusive: 39.8 µM [inhibitor, partial curve, poor fit]
Cc1ccccc1-c1noc(-c2cccs2)n1	inactive
O=S(=O)(c1cc(O)ccc1O)c1cccc2c(S(=O)(=O)c3cc(O)ccc3O)cccc12	active: 31.6 µM
COc1ccc(/C=C(\C#N)C(=O)N2CCOCC2)cc1Br	inactive
COc1ccc(CCN(C)CCCN2CC(c3ccccc3)CC2=O)cc1OC (stereo not drawn)	inconclusive: 7.94 µM [inhibitor, full curve, poor fit]
CN(Cc1ccccc1)c1ccc(C(CC(N)=O)NC(=O)Cc2ccc(Br)cc2)cc1[N+](=O)[O-] (stereo not drawn)	inconclusive: 100 µM [inhibitor, single point]
Cc1cc(-c2nc3ncccc3[nH]2)c(C)[nH]1	inactive
CC(NC(=O)c1cnccn1)c1ccccc1 (stereo not drawn)	inconclusive: 1.12 µM [inhibitor, partial curve, poor fit]
CC(=O)c1c(O)cc2n(c1=O)-c1ccc(Cl)cc1C2(C)C	inconclusive: 6.31 µM [inhibitor, full curve]
CCOc1ccccc1N(CC(=O)Nc1ccc(OC)cc1)S(=O)(=O)c1ccccc1	inactive
O=S(=O)(c1ccc(F)cc1)N1CCC(N2CCCCCC2)CC1	inconclusive: 3.55 µM [inhibitor, full curve]
N#Cc1ccc(/C=C/C(=O)N(Cc2ccc(C(F)(F)F)cc2)C2CC2)cc1	inactive
O=[N+]([O-])c1ccc(C=CC=Cc2ccccc2)cc1	inconclusive: 39.8 µM [inhibitor, partial curve, poor fit]
c1cn2c(NC3CCCCC3)c(-c3ccc(N4CCOCC4)cc3)nc2cn1	inactive
CCC1CCCCN1C(=O)Cn1cnc2c1c(=O)n(C)c(=O)n2C (stereo not drawn)	inactive
CC1(C(=O)NS(=O)(=O)c2ccc(F)cc2F)CCN1C(=O)C/C=C/c1ccccc1 (stereo not drawn)	inconclusive: 28.2 µM [inhibitor, single point]
CC1CN(CC(O)COC(c2ccc(Cl)cc2)c2ccc(Cl)cc2)CC(C)O1 (stereo not drawn)	inconclusive: 50.1 µM [inhibitor, partial curve, poor fit]
O=C(CSc1ncn[nH]1)N1N=C2/C(=C/c3ccccc3)CCCC2C1c1ccccc1 (stereo not drawn)	inactive
Cc1cc(=O)oc2cc(OCC(=O)NC3(C#N)CCCCC3)c(Cl)cc12	inconclusive: 100 µM [inhibitor, single point]
C[S+](=O)([O-])c1cccc(NC(=O)Cc2c[nH]c3ncc(-c4ccccc4)cc23)c1	inactive
CN(Cc1ccccc1)Cc1cn([C@H]2CO[C@H]3[C@@H]2OC[C@@H]3NC(=O)NC2CCCCC2)nn1	inconclusive: 100 µM [inhibitor, partial curve, poor fit]

Compound	Potency
CC1(C)[C@H](Cc2cc(COC(=O)c3cccs3)on2)C[C@@H]1NC(=O)c1cccs1	inactive
O=C(Nc1ccc(Cl)cc1)c1cc(Br)ccc1OCC(=O)N1CCOCC1	inconclusive: 89.1 µM [inhibitor, partial curve, poor fit]
CN1CCN(Cc2coc3c(Cl)cc(Cl)cc3c2=O)CC1	inconclusive: 0.398 µM [inhibitor, full curve]
COC(=O)C1=Cc2cc(OC)cc([N+](=O)[O-])c2OC1N1CCOCC1 (stereo not drawn)	inconclusive: 35.5 µM [inhibitor, partial curve, poor fit]
c1ccc2sc(N3CCCCC3)nc2c1	inactive
NCc1cccc(NC(=O)C2CC2)c1	inconclusive: 0.0891 µM [inhibitor, full curve, poor fit]
Cc1cc(C)cc(NC2=NCC(=O)N2Cc2ccccc2)c1	inconclusive: 12.6 µM [inhibitor, partial curve, poor fit]
COCCn1c(SCC(=O)NCC2CCCO2)nc2c([nH]c3ccccc32)c1=O (stereo not drawn)	inconclusive: 44.7 µM [inhibitor, partial curve, poor fit]
Cc1ccc(C)c(-c2ccc(=O)n(Cc3ccc(F)cc3Cl)n2)c1	inconclusive: 63.1 µM [inhibitor, partial curve, poor fit]
CCCCCCCC(=O)N/N=C/C(C)=N/NC(=O)CCCCCCC	inactive
Cc1ccc(S(=O)(=O)c2c(N)n(CCCN(C)C)c3nc4ccccc4nc23)cc1	inconclusive: 100 µM [inhibitor, single point]
O=C(COc1ccccc1)Nc1sc2c(c1C(=O)Nc1ccccc1)CCCCC2	inconclusive: 50.1 µM [inhibitor, partial curve, poor fit]
Cc1csc(NC(=O)COc2ccc3c(C)cc(=O)oc3c2)n1	inactive
COc1ccc(C2N=C(c3ccccc3)C(C)(C)N2O)cc1OC (stereo not drawn)	inconclusive: 50.1 µM [inhibitor, partial curve, poor fit]
COc1cc2cc(C(c3nnnn3C3CCCC3)N3CCc4ccccc43)c(=O)[nH]c2cc1OC (stereo not drawn)	inactive
CC(C)c1cc(=O)oc2c3c4c(cc12)CCCN4CCC3	inactive
CSCC[C@H](NC(=O)c1ccc(Cl)c(S(=O)(=O)N2CCCC2)c1)c1nc2ccccc2[nH]1	inconclusive: 20 µM [inhibitor, partial curve, poor fit]
Cc1cccc(NC(=S)N/N=C/c2ccc3c(c2)OCO3)c1	inconclusive: 11.2 µM [inhibitor, full curve, poor fit]
COc1nccnc1NS(=O)(=O)c1ccc(NC(=S)NC(=O)c2ccc(F)cc2)cc1	active: 35.5 µM
Cc1ccc(OCC(=O)NCCNC(=O)c2ccncc2)cc1	inactive
Cc1ccccc1C(=O)/C(C#N)=N/Nc1c(C)n(C)n(-c2ccccc2)c1=O	inconclusive: 11.2 µM [inhibitor, full curve]
CC(=O)Nc1cccc(NC(=O)CCc2c(C)[nH]n(-c3ccc(F)cc3)c2=O)c1	inactive
O=C(c1cc(Br)c(Br)s1)N1CCN(c2ccccn2)CC1	inactive
Cc1cc(CC(=O)O)c(C)n1-c1ccc(Cl)cc1	inconclusive: 6.31 µM [inhibitor, partial curve, poor fit]
COc1ccc(N2C[C@@]3(O)CC[C@@H](O)[C@@H](OC)[C@@H]3[C@@](C)(O)[C@@H]2CC=C(C)C)cc1	inactive

Compound	Potency
N#CC(C#N)=C1C=C(c2ccccc2)OC2=C1CCCC2	inactive
COc1ccc(Nc2nc3ccccc3nc2NS(=O)(=O)c2ccc(Cl)s2)cc1	inconclusive: 39.8 µM [inhibitor, partial curve]
CC(C)CCNC(=O)NC(=O)CCl	active: 28.2 µM
O=C(NCc1ccc2c(c1)OCO2)C1CCN(c2ccc(S(=O)(=O)N3CCCC3)cc2)CC1	inactive
COc1ccc2c(c1)C(c1cccs1)=NNC(c1ccncc1)=N2	inactive
COc1cccc(-c2nnc(NC(=O)CCS(=O)(=O)c3ccc(F)cc3)o2)c1	inactive
O=C(COc1ccc(-c2nnco2)cc1)N1CCN(S(=O)(=O)c2ccc3ccccc3c2)CC1	inactive
Cc1ccc2nc(C)cc(=S)n2c1	inconclusive: 141 µM [inhibitor, single point]
CCOc1cc(/C=N/Nc2nnc(C)n2N)ccc1OC(C)=O	inconclusive: 28.2 µM [inhibitor, partial curve, poor fit]
O=C(NC(=S)Nc1ncccn1)c1ccc(Cl)cc1Cl	inconclusive: 2.24 µM [inhibitor, full curve, poor fit]
CCOC(=O)N1c2ccc(C(F)(F)F)cc2[C@@H](N(Cc2cc(C(F)(F)F)cc(C(F)(F)F)c2)C(=O)OC)C[C@H]1CC	inactive
CC1CCCCC1NC(=O)CCCCCn1c(=S)[nH]c2ccccc2c1=O (stereo not drawn)	inconclusive: 100 µM [inhibitor, single point]
Cc1cc(-c2cc(C(=O)O)c3ccccc3n2)cc(C)c1C	inconclusive: 89.1 µM [inhibitor, partial curve, poor fit]
Cc1ccc(CNC(=O)Cn2cnc3cc([N+](=O)[O-])ccc3c2=O)cc1	inactive
Clc1cccc(N2CCN(c3c4c(nc5nncn35)CCC4)CC2)c1	inactive
O=c1[nH]c(Nc2ccccc2)cc2cc(Br)ccc12	active: 15.8 µM
Oc1c(Br)cc(CNC2CCCCC2)cc1Br	inconclusive: 56.2 µM [inhibitor, partial curve, poor fit]
S=C(NCc1ccc(Cl)cc1Cl)NC1CCCCC1	active: 39.8 µM
c1ccc(-c2cnnn2-c2ccccc2)cc1	inconclusive: 0.708 µM [inhibitor, full curve, poor fit]
COc1cccc(-c2cc(C(=O)Nc3ccccc3)c3ccccc3n2)c1	inconclusive: 70.8 µM [inhibitor, single point]
O=c1oc(-c2ccccc2)nc2sc3c(c12)CCC3	inconclusive: 44.7 µM [inhibitor, partial curve, poor fit]
CCc1nnc(SCc2ccc(F)cc2Cl)c2cc3sc(C)cc3n12	inactive
Cc1ccccc1CC(=O)Nc1cccc(S(=O)(=O)N2CCCC2)c1	inconclusive: 89.1 µM [inhibitor, single point]

Five compounds from above, sorted by count of non-hydrogen atoms, ascending:
Compound	Potency
CC(C)CCNC(=O)NC(=O)CCl	active: 28.2 µM
CN1CCN(Cc2coc3c(Cl)cc(Cl)cc3c2=O)CC1	inconclusive: 0.398 µM [inhibitor, full curve]
C[S+](=O)([O-])c1cccc(NC(=O)Cc2c[nH]c3ncc(-c4ccccc4)cc23)c1	inactive
CCOc1ccccc1N(CC(=O)Nc1ccc(OC)cc1)S(=O)(=O)c1ccccc1	inactive
O=S(=O)(c1cc(O)ccc1O)c1cccc2c(S(=O)(=O)c3cc(O)ccc3O)cccc12	active: 31.6 µM
